The whole screen tested about 340,000 compounds, of which about 4,500 (1.3%) were called active. Inconclusive results, whose numbers are uncertain, are shown with a selection of clear calls. The call rests on the fitted dose curve; in most records, active means well fitted inhibition curve with a large enough effect; inconclusive means small, poorly fitted or top-dose-only effect, or another doubt; inactive means no such curve, though single readings can be large or run the other way. Potencies of inconclusive entries are doubtful fits and often do not repeat.
biological target: DNA polymerase beta (Homo sapiens) (UniProt P06746); experiment: qHTS Assay for Inhibitors of DNA Polymerase Beta; conditions: Pol beta primer extension/strand displacement, fluorescence kinetic; activity change, negative = inhibition: at 114 µM (top of the series)
How it was run: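 Reaction started by 50 nM substrate onto compound-treated Pol beta (10 nM, 15 min preincubation, room temperature); plates read at 0 min and 10 min. Normalized concentration-effect data fitted by four-parameter Hill equation.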
On the % scale 0 is the no-effect control and ±100 the full control effect; potency means the concentration at half of the fitted maximal effect.

| Compound | activity change, negative = inhibition | Potency |
| --- | --- | --- |
| O=C(O)c1cc(/C=C/C(=O)c2cc(F)ccc2O)c2c(c1)COCO2 | inconclusive: -111% [inhibitor] |  |
| CCOC(=O)/C=C1/N(C)c2ccccc2C1(C)C | inactive: -1.53% |  |
| O=C(O)c1cccc(-n2cccc2/C=C2/SC(=O)N(CC(=O)N3CCCC3)C2=O)c1 |  | active: 10 µM |
| Cc1cccc(Oc2ccc3c(c2)Oc2ccccc2NC3=O)c1 |  | active: 12.6 µM |
| CC(=O)N1CCC(c2c[nH]c3ccccc23)CC1 |  | inconclusive: 31.6 µM [inhibitor, single point] |
| Fc1ccc(-[n+]2nc(Nc3ccccc3)sc2-c2c3ccccc3cc3ccccc23)cc1 | inactive: 7.67% |  |
| CCOC(=O)c1cc(-c2ccccc2)n(-c2cccc(C(=O)Nc3cccc(C(C)=O)c3)c2)c1C |  | inconclusive: 79.4 µM [inhibitor, single point] |
| O=Cc1cccn1-c1sc2c(c1C(=O)O)CCCC2 |  | inconclusive: 50.1 µM [inhibitor, partial curve, poor fit] |
| O=C(N/N=C/c1cccnc1)c1cc2c(ccc3ccccc32)o1 |  | active: 11.2 µM |
| Cc1cccc(C(=O)Nc2sc(-c3ccccc3)cc2C(=O)O)c1 |  | inconclusive: 89.1 µM [inhibitor, single point] |
| Cc1oc2cc([N+](=O)[O-])c(O)c([N+](=O)[O-])c2c1C(=O)c1ccc(Br)cc1 |  | inconclusive: 50.1 µM [inhibitor, partial curve] |
| O=C(CSc1nc2c([nH]c3ccccc32)c(=O)n1-c1ccccc1)N1CCCCCC1 |  | inconclusive: 28.2 µM [inhibitor, partial curve] |
| CCCCCCc1cc2cc(S(=O)(=O)c3ccc(C)cc3)c(=O)oc2cc1O |  | inconclusive: 31.6 µM [inhibitor, partial curve] |
| COc1cccc2c1OCC(CN1CCN(C3CCCCC3)C(CCO)C1)=C2 (stereo not drawn) |  | inconclusive: 3.16 µM [inhibitor, single point] |
| CCNc1nc(=S)nc(NCc2ccccc2)[nH]1 |  | inconclusive: 0.282 µM [inhibitor, full curve, poor fit] |
| CCN(CC)S(=O)(=O)c1cc(NC(=O)CNc2c(C)n(C)n(-c3ccccc3)c2=O)ccc1C |  | inconclusive: 63.1 µM [inhibitor, single point] |
| CCCCn1c(-c2ccccc2)cnc1SCC(=O)NCCc1ccc(OC)c(OC)c1 |  | inconclusive: 0.708 µM [inhibitor, full curve, poor fit] |
| O=[N+]([O-])c1ccc(N/N=C/c2cccc(O)c2O)cc1 |  | inconclusive: 56.2 µM [inhibitor, partial curve] |

2 compounds drawn at random from the list so far:

| Compound | activity change, negative = inhibition | Potency |
| --- | --- | --- |
| O=C(N/N=C/c1cccnc1)c1cc2c(ccc3ccccc32)o1 |  | active: 11.2 µM |
| O=C(O)c1cccc(-n2cccc2/C=C2/SC(=O)N(CC(=O)N3CCCC3)C2=O)c1 |  | active: 10 µM |
